Among the data in paper PMC7615239 are binding values, retold here.

Amino acid sequences for entries named in this document (tags omitted). A change or cut given only in a name is not applied to a line headed by its entry.
UniProt Q9LHF5: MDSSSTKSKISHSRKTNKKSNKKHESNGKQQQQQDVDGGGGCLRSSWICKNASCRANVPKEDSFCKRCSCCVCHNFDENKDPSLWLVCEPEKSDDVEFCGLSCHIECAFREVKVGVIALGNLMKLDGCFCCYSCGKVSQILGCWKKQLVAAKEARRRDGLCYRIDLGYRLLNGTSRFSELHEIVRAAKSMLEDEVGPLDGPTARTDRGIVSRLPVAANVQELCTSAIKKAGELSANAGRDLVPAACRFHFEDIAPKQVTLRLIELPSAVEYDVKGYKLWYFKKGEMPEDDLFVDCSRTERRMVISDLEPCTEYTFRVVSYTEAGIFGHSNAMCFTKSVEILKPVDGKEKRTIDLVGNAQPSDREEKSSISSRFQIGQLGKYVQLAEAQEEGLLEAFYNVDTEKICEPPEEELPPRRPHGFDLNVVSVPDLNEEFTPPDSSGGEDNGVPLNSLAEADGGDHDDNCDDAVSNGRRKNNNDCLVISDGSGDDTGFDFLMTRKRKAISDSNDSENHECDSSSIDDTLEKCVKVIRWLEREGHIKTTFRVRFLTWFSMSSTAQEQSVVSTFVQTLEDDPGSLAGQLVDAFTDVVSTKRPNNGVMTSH
UniProt O22467: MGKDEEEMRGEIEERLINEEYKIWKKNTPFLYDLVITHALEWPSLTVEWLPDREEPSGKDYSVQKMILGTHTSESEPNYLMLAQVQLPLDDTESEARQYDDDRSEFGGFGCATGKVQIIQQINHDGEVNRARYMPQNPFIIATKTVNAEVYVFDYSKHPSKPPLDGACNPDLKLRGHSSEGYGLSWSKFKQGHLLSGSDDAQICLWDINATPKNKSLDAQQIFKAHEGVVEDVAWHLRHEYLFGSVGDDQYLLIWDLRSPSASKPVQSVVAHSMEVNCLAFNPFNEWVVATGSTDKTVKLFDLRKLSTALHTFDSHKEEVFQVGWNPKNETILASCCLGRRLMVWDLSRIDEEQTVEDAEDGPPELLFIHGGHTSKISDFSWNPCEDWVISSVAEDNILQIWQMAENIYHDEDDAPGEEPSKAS

No constants are given. Whether binding was seen depends on the method and setting. Binding seen in cells or lysates may run through a third protein. Binding calls can cover weak binding; strength is not graded here. For some assays here: Tags and fused reporters may be left off the sequences shown.

One experiment has as its target T1, GFP-VAL1 (Arabidopsis) (UniProt Q8W4L5).
T1 sequence: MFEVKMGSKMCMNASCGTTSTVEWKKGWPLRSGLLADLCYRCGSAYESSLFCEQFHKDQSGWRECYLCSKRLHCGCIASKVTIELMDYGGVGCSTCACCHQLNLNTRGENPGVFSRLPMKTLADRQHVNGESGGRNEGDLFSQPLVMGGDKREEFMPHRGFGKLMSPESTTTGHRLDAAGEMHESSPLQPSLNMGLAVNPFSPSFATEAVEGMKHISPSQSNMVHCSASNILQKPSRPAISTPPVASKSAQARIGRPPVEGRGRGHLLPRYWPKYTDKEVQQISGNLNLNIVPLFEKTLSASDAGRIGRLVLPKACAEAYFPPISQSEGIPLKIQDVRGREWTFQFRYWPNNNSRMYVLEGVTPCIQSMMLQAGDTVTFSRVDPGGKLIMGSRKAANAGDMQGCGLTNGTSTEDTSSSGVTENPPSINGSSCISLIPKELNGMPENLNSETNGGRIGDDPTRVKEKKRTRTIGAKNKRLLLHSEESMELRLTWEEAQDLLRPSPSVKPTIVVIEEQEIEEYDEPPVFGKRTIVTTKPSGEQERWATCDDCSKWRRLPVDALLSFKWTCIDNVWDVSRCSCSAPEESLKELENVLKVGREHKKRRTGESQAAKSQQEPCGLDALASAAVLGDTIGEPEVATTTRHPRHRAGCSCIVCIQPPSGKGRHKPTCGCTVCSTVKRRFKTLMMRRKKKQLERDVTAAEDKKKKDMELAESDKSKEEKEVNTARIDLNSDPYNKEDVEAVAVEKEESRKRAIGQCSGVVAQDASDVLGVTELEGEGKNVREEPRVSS
The experiment can be described thus: co-IP; GFP-VAL1 (wt or internal deletions) coexpressed with FLAG-dsRed-tagged VEL proteins (wt or mutant) in HEK293T; GFP-trap; anti-FLAG blot.

The target in experiment [1] is GFP-VRN5 ΔVEL (Arabidopsis thaliana) (UniProt Q9LHF5). The experiment can be described thus: co-IP; GFP-tagged VEL protein (wt, mutant or chimera) coexpressed with all four HA-tagged PRC2 subunits (VRN2, SWN, FIE, MSI1) in HEK293T; GFP-trap 90 min at 4°C; lysis buffer 20 mM Tris pH 7.4, 200 mM NaCl, 10% glycerol, 0.2% Triton X-100; anti-HA blot.
Experiment [2] concerns the target GFP-VRN5 ΔPHDs (Arabidopsis thaliana) (UniProt Q9LHF5). The description is as above.
For experiment [3], the target named is GFP-VRN5 ΔN (Arabidopsis thaliana) (UniProt Q9LHF5). The experiment is described as above.
For experiment [4], the target named is GFP-VRN5 ΔFN3 (Arabidopsis thaliana) (UniProt Q9LHF5). The description is as above.

In the case of “FLAG-dsRed-VIN3 ΔKRFK with a heterologous viral NLS (PKKKRKV) (Arabidopsis thaliana)”, the binding entry with GFP-VAL1 (Arabidopsis) is given as “binds”.

“HA-tagged MSI1 (from UniProt O22467 1-424)”: the binding entry in experiment [1] was “binds”; in experiment [2] it was “binds weakly”; in experiment [3], “binds”; in experiment [4] it was “binds”.
